Data from article PMC2912378 (PLoS ONE, 2010).
Results are given in words; binding and its absence hold for the method and conditions named. In cells and extracts the contact can be indirect. Some results given as binding are weak or reduced against the parent protein; the word gives no strength. For some of these results: Tags and fused reporters may be left off the sequences shown.

Sequences of proteins named here, by UniProt entry; tags and fusion partners are left off.
UniProt Q04207: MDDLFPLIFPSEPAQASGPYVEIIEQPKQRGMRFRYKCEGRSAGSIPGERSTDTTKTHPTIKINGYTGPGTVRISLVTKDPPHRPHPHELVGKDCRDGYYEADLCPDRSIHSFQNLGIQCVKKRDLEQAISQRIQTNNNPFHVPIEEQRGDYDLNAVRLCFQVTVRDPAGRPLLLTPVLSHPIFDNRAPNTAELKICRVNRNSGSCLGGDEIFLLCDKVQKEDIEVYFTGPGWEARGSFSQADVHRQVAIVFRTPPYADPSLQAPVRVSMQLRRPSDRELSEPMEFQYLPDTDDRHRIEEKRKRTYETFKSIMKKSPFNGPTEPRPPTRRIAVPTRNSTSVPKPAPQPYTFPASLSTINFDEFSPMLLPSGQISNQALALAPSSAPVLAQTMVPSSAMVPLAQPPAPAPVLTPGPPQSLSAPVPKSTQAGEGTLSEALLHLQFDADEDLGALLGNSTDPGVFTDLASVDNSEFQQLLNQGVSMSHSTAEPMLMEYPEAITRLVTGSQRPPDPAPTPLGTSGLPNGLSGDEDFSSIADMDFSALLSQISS

T1: Myc-tagged mouse RelB, full length (WT) (mouse) (UniProt Q04863)
T1 sequence: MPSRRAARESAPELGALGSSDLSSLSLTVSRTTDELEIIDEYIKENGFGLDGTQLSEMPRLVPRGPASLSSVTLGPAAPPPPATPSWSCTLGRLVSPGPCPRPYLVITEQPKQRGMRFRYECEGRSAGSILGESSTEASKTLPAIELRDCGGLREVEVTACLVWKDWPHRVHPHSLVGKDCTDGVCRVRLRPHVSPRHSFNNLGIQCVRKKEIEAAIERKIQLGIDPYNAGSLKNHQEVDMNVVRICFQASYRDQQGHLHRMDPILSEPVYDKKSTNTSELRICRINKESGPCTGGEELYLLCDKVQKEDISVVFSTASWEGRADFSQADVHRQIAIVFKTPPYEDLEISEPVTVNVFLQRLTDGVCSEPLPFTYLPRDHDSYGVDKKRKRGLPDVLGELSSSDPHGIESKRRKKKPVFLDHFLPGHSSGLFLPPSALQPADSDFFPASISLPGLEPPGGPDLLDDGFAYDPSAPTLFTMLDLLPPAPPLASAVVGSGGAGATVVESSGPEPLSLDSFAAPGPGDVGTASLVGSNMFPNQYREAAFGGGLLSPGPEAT


How the values were obtained:
[1] = target: T1, Myc-tagged mouse RelB, full length (WT) (mouse); assay: co-IP
[2] = target: Myc-tagged RelB Δ52–402 (mouse) (UniProt Q04863); assay: co-IP
[3] = target: RelB with deletion of the proximal nuclear localization signal (residues 388–392) (mouse) (UniProt Q04863); assay: co-IP
[4] = target: RelA (p65) (endogenous, BV-2 microglial cells) (mouse (endogenous in BV-2)) (UniProt Q04207); assay: co-IP; whole cell lysates of BV-2 cells, untreated or treated with Tat (100nM) for 4h or 8h; immunoprecipitation with a RelA-specific antibody and Protein A/G+ agarose beads, 4°C, washed with ELB lysis buffer; immunoblot with RelB-specific antibody; densitometry normalised to precipitated RelA

Molecule | binding [1] | binding [2] | binding [3] | binding [4]
influenza hemagglutinin (HA)-tagged derivative of RelA (from UniProt Q04207 1-549) | binds | no binding | binds | –
RelB (endogenous, BV-2 microglial cells) (natural protein, mouse (endogenous in BV-2), UniProt Q04863 1-558, looked up, NF-kappa B family member RelB, endogenous in the murine microglial cell line BV-2; source: endogenous, BV-2 whole cell lysate) MPSRRAARESAPELGALGSSDLSSLSLTVSRTTDELEIIDEYIKENGFGLDGTQLSEMPRLVPRGPASLSSVTLGPAAPPPPATPSWSCTLGRLVSPGPCPRPYLVITEQPKQRGMRFRYECEGRSAGSILGESSTEASKTLPAIELRDCGGLREVEVTACLVWKDWPHRVHPHSLVGKDCTDGVCRVRLRPHVSPRHSFNNLGIQCVRKKEIEAAIERKIQLGIDPYNAGSLKNHQEVDMNVVRICFQASYRDQQGHLHRMDPILSEPVYDKKSTNTSELRICRINKESGPCTGGEELYLLCDKVQKEDISVVFSTASWEGRADFSQADVHRQIAIVFKTPPYEDLEISEPVTVNVFLQRLTDGVCSEPLPFTYLPRDHDSYGVDKKRKRGLPDVLGELSSSDPHGIESKRRKKKPVFLDHFLPGHSSGLFLPPSALQPADSDFFPASISLPGLEPPGGPDLLDDGFAYDPSAPTLFTMLDLLPPAPPLASAVVGSGGAGATVVESSGPEPLSLDSFAAPGPGDVGTASLVGSNMFPNQYREAAFGGGLLSPGPEAT | – | – | – | binds
